Assay results published in PubChem BioAssay AID248 (DTP/NCI, 2004).
The list shows only some results of the screen, not a fair sample: it gathers tests that were run many times, whatever their T/C, doses with no T/C, and many T/C values between a quarter and a half above the control. Other doses and runs of a compound stand elsewhere. T/C is the treated group as % of the vehicle group. Some entries give survivors of the animals treated and no T/C: the source holds a T/C of zero for them, seemingly a mark for toxic or unscored doses. Some survivor counts are full or nearly so, which does not show that the dose was tolerated: the source hardly ever lists a survival T/C far under the control, and the zero likely stands for such cases as well. Survivors were counted at the toxicity check, usually on the fifth day, unless a day is given; later deaths do not show. Schedule codes are those of the source, taken here to give the interval after Q, in days (D) or hours (H), and the number of doses after X. Where survival is the endpoint, the PubChem record calls one and a half times the control and up active, and a quarter to a half above the control has no call in these data; cut-offs in other NCI protocols can differ. Some T/C values are followed by the survivors on the day toxicity was checked, most often the fifth; where none is given, no animal had died by that day. Some doses were run more than once; the results are listed from low to high. Some schedules carry Z or #; the key to these is not given.

System: L1210 leukemia ip in BDF1 mice, survival T/C
Test: NCI In Vivo Anticancer Drug Screen. Data for tumor model L1210 Leukemia (intraperitoneal) in B6D2F1 (BDF1) mice
Details: T/C endpoint: mean survival time, higher T/C = longer survival
[1] = dose: 100.0 mg/kg/injection, schedule: Q01DX001 (ip), vehicle: saline
[2] = dose: 200.0 mg/kg/injection, schedule: Q01DX001 (ip), vehicle: saline
[3] = dose: 400.0 mg/kg/injection, schedule: Q01DX001 (ip), vehicle: saline
[4] = dose: 400.0 mg/kg/injection, schedule: Q01DX009 (ip), vehicle: saline with Tween-80
[5] = dose: 400.0 mg/kg/injection, schedule: Q04DX003 (ip), vehicle: saline with Tween-80
[6] = dose: 200.0 mg/kg/injection, schedule: Q01DX009 (ip), vehicle: Klucel (hydroxypropylcellulose) (HPC)
[7] = dose: 150.0 mg/kg/injection, schedule: Q01DX001 (ip), vehicle: saline
[8] = dose: 300.0 mg/kg/injection, schedule: Q01DX001 (ip), vehicle: saline
[9] = dose: 150.0 mg/kg/injection, schedule: Q01DX001 (ip), vehicle: other
[10] = dose: 300.0 mg/kg/injection, schedule: Q01DX001 (ip), vehicle: other

`C[N+](C)(C)/N=C\C1CC=CCC1` (stereo not given) was tested, and the survivor count (dose: 100.0 mg/kg/injection, schedule: Q01DX009 (ip), vehicle: saline) was 0 of 3 and the survivor count (dose: 200.0 mg/kg/injection, schedule: Q01DX009 (ip), vehicle: saline) was 0 of 3.

`CC1(C)C2(C(N)=O)C(=O)NC(=O)C12C(=O)O` (stereo not given) was tested, and the survivor count (dose: 100.0 mg/kg/injection, schedule: Q04DX002 (ip), vehicle: saline with Tween-80) was 3 of 3 and the survivor count (dose: 400.0 mg/kg/injection, schedule: Q04DX002 (ip), vehicle: saline with Tween-80) was 3 of 3.

`CC(C)(C)C(=O)CC(=O)C(C)(C)C.CC(C)(C)C(=O)CC(=O)C(C)(C)C.[Ni]` was tested, and the survivor count (dose: 75.0 mg/kg/injection, schedule: Q04DX003 (ip), vehicle: saline) was 1 of 6, the survivor count (dose: 150.0 mg/kg/injection, schedule: Q04DX003 (ip), vehicle: saline) was 0 of 6 and the survivor count (dose: 300.0 mg/kg/injection, schedule: Q04DX003 (ip), vehicle: saline) was 0 of 6.

`NNc1nncn1N` was tested, and the survivor count (dose: 400.0 mg/kg/injection, schedule: Q04DX003 (ip), vehicle: saline) was 5 of 6.

With `Cc1cc(N(C)C)c(C(C)C)cc1O` (tested in a mixture with another compound) the survivor count [1] was 0 of 6, the survivor count [2] was 0 of 6 and the survivor count [3] was 0 of 6.

In the case of `NC(=S)c1ccc(Cl)cc1`, the survivor count [4] is reported as 2 of 6.

In the case of `CN(C)N=Nc1c(Cl)cc(Cl)cc1C(N)=O`, the T/C (dose: 133.0 mg/kg/injection, schedule: Q01DX009 (ip), vehicle: saline) is reported as 136 % of control, the T/C (dose: 200.0 mg/kg/injection, schedule: Q01DX009 (ip), vehicle: saline with Tween-80) is reported as 141 % of control and the T/C (dose: 264.0 mg/kg/injection, schedule: Q04DX003 (ip), vehicle: saline with Tween-80) is reported as 132 % of control. The T/C [4] was 132 % of control [5 of 6 alive], the T/C [5] was 138 and 140 % of control [5 of 6 alive] and the survivor count (dose: 600.0 mg/kg/injection, schedule: Q04DX003 (ip), vehicle: saline with Tween-80) was 3 of 6.

For `CC(=O)OS(C)(=O)=O`, the survivor count [6] was 1 of 6, the survivor count (dose: 200.0 mg/kg/injection, schedule: Q04DX003 (ip), vehicle: Klucel (hydroxypropylcellulose) (HPC)) was 3 of 6 and the survivor count (dose: 400.0 mg/kg/injection, schedule: Q04DX003 (ip), vehicle: Klucel (hydroxypropylcellulose) (HPC)) was 0 of 6.

For `NNC(=O)c1ccc(Br)cc1`, the T/C (dose: 100.0 mg/kg/injection, schedule: Q01DX009 (ip), vehicle: Klucel (hydroxypropylcellulose) (HPC)) was 136 % of control, the survivor count [6] was 5 of 6 and the survivor count (dose: 400.0 mg/kg/injection, schedule: Q01DX009 (ip), vehicle: Klucel (hydroxypropylcellulose) (HPC)) was 0 of 6.

`COc1ccc2c3c1OC1C(C)=CCC4C(C2)N(C)CCC314` (stereo not given) was tested, and the survivor count [7] was 0 of 6 and the survivor count [8] was 1 of 6.

In the case of `Brc1cccc[n+]1-c1cc(-[n+]2ccccc2Br)cc(-[n+]2ccccc2Br)c1`, the survivor count (dose: 9.38 mg/kg/injection, schedule: Q01DX001 (ip), vehicle: other) is reported as 1 of 6, the survivor count (dose: 18.75 mg/kg/injection, schedule: Q01DX001 (ip), vehicle: other) is reported as 0 of 6 and the survivor count (dose: 37.5 mg/kg/injection, schedule: Q01DX001 (ip), vehicle: other) is reported as 0 of 6. For the same molecule, the survivor count (dose: 75.0 mg/kg/injection, schedule: Q01DX001 (ip), vehicle: other) was 0 of 6, the survivor count [9] was 0 of 6 and the survivor count [10] was 0 of 6.

`CC1=CC(=O)C(C)(C(Cl)Cl)C=C1` (stereo not given) was tested, and the survivor count [5] was 0 of 6.

With `Cl[Si]1(Cl)CCCCC1` the survivor count (dose: 75.0 mg/kg/injection, schedule: Q01DX001 (ip), vehicle: saline) was 4 of 6, the survivor count [7] was 0 of 6 and the survivor count [8] was 0 of 6.

With `CC(=O)NC1=C(Nc2ccc(-c3ccc(NC4=C(NC(C)=O)C(=O)c5ccccc5C4=O)cc3)cc2)C(=O)c2ccccc2C1=O` the survivor count (dose: 18.0 mg/kg/injection, schedule: Q01DX009 (ip), vehicle: saline) was 0 of 6, the survivor count (dose: 25.0 mg/kg/injection, schedule: Q01DX001 (ip), vehicle: saline) was 1 of 6 and the survivor count (dose: 28.0 mg/kg/injection, schedule: Q04DX003 (ip), vehicle: saline) was 0 of 6. The survivor count (dose: 42.0 mg/kg/injection, schedule: Q04DX003 (ip), vehicle: saline) was 0 of 6, the survivor count (dose: 50.0 mg/kg/injection, schedule: Q01DX001 (ip), vehicle: saline) was 0 of 6 and the survivor count [1] was 0 of 6. The survivor count [2] was 0 of 6 and the survivor count [3] was 0 of 6.

In the case of `CC[n+]1cccc(NC(=O)c2ccc(NC(=O)c3ccc(C(=O)Nc4ccc5c(ccc[n+]5CC)c4)cc3)cc2)c1`, the survivor count (dose: 1.0 mg/kg/injection, schedule: Q01DX015 (oral), vehicle: alkali diluted with saline) is reported as 1 of 6, the T/C (dose: 1.1 mg/kg/injection, schedule: Q01DX Z (ip), vehicle: carboxymethylcellulose (CMC)) is reported as 141 % of control and the T/C (dose: 1.5 mg/kg/injection, schedule: Q01DX015 (ip), vehicle: alkali diluted with saline) is reported as 144 % of control. For the same molecule, the survivor count (dose: 3.0 mg/kg/injection, schedule: Q01DX015 (oral), vehicle: alkali diluted with saline) was 0 of 6, the survivor count (dose: 6.0 mg/kg/injection, schedule: Q01DX015 (oral), vehicle: alkali diluted with saline) was 0 of 6 and the T/C (dose: 6.7 mg/kg/injection, schedule: Q01DX Z (ip), vehicle: carboxymethylcellulose (CMC)) was 125 % of control. For the same molecule, the survivor count (dose: 12.0 mg/kg/injection, schedule: Q01DX015 (ip), vehicle: alkali diluted with saline) was 1 of 6, the survivor count (dose: 12.0 mg/kg/injection, schedule: Q01DX015 (oral), vehicle: alkali diluted with saline) was 0 of 6 and the survivor count (dose: 25.0 mg/kg/injection, schedule: Q01DX015 (oral), vehicle: alkali diluted with saline) was 0 of 6. The survivor count (dose: 35.0 mg/kg/injection, schedule: Q01DX015 (ip), vehicle: alkali diluted with saline) was 4 of 6, the survivor count (dose: 37.0 mg/kg/injection, schedule: Q01DX001 (ip), vehicle: alkali diluted with saline) was 0 of 4 and the survivor count (dose: 50.0 mg/kg/injection, schedule: Q01DX001 (ip), vehicle: alkali diluted with saline) was 0 of 4. The survivor count (dose: 50.0 mg/kg/injection, schedule: Q01DX015 (ip), vehicle: alkali diluted with saline) was 0 of 6, the survivor count (dose: 50.0 mg/kg/injection, schedule: Q01DX015 (oral), vehicle: alkali diluted with saline) was 0 of 6 and the survivor count (dose: 100.0 mg/kg/injection, schedule: Q01DX001 (ip), vehicle: alkali diluted with saline) was 0 of 4. The survivor count (dose: 200.0 mg/kg/injection, schedule: Q01DX001 (ip), vehicle: alkali diluted with saline) was 0 of 4 and the survivor count (dose: 400.0 mg/kg/injection, schedule: Q01DX001 (ip), vehicle: alkali diluted with saline) was 0 of 4.

In the case of `CN(C)C(=O)NNC(=O)c1ccc(Cl)cc1`, the survivor count [5] is reported as 1 of 6.

`CCCCCCCCC(=O)[O][Hg][c]1ccccc1` was tested, and the survivor count [9] was 0 of 6 and the survivor count [10] was 1 of 6.

With `OCCSc1ccc(Cl)cc1` the survivor count (dose: 400.0 mg/kg/injection, schedule: Q01DX009 (ip), vehicle: other) was 0 of 6.
